# Assay results: patent US20240182582A1
# By UniProt entry, the sequences of proteins in these tests, tags left out. Residues count along the entry.
# UniProt P61252, residues 80-216: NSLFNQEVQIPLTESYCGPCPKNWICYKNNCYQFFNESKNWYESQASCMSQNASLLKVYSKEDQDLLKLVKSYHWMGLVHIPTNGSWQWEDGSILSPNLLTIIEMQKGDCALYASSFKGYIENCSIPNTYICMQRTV
# UniProt O76036, residues 22-120: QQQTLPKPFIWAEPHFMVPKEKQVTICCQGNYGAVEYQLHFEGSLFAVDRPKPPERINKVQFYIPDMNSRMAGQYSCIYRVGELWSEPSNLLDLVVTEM
# Results are given in words; binding and its absence hold for the method and conditions named. Some entries that bind do so weakly or less than the wild type.
# Assays:
# [1] = molecular target: Cyno NKG2d (NKGW2.001) (cynomolgus monkey) (UniProt P61252); assay: ELISA of hybridoma supernatant
# [2] = molecular target: N46W3 (NKp46 D1) (UniProt O76036); assay: binding kinetics to recombinant N46W3
binding [1],binding [2],Binder
binds,,"Clone NKGY1_045_F04 (antibody, V domains shown) VH: EVQLLESGGGLVQPGGSLRLSCAASGFTFSIYAMTWVRQAPGKGLEWVSIISGSGDHTFYADSVKGRFTISRDNSRNTLYLQMDSLRAEDTAVYYCAKEGKWVQLSHFANWGQGTLVTVSS VL: SYVLTQPPSVSVAPGQTARITCGGNNIGSKSVHWYQQKAGQAPVLVVYDDSDRPSGIPERFSGSNSGNTATLTISRVEAGDEADYYCQVWDGRSDHVVFGGGTKLTVL"
,binds,"N46B105 (antibody, V domains shown) VH: QLQLQESGPGPVRPSETLSLTCTVSGDSIRSSSYYWGWIRQPPGKGLDWIGSIYYTGSTYYNPSLMSRVTISVDTSKNQFSLKLSSVTAADTAVYYCASPGYSSGWSIDYWGQGTLVTVSS VL: DIQLTQSPSFLSASVGDRVTITCRASQGISSYLAWYQQKPGKAPKLLIYVASTLQSGVPSRFSGSGSGTEFTLTISSLQPEDFATYYCQQLNSYPRMTFGGGTKVEIK"
